Data as given in the supplement of paper PMC10849652.
The list shows a part of the results.

The chains behind the UniProt entries cited, without tags or fusion partners. Where a name states a change or a piece, a line headed by the entry shows the natural chain unless it says otherwise.
UniProt Q6ZVX7: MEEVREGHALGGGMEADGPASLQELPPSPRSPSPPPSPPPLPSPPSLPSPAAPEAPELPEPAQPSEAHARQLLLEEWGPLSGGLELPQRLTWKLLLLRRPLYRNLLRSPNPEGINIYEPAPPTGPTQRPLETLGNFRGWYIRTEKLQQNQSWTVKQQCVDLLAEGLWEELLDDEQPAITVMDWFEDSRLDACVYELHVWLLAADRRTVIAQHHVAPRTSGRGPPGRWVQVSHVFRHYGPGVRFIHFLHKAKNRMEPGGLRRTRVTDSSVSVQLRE
UniProt Q9NZM1: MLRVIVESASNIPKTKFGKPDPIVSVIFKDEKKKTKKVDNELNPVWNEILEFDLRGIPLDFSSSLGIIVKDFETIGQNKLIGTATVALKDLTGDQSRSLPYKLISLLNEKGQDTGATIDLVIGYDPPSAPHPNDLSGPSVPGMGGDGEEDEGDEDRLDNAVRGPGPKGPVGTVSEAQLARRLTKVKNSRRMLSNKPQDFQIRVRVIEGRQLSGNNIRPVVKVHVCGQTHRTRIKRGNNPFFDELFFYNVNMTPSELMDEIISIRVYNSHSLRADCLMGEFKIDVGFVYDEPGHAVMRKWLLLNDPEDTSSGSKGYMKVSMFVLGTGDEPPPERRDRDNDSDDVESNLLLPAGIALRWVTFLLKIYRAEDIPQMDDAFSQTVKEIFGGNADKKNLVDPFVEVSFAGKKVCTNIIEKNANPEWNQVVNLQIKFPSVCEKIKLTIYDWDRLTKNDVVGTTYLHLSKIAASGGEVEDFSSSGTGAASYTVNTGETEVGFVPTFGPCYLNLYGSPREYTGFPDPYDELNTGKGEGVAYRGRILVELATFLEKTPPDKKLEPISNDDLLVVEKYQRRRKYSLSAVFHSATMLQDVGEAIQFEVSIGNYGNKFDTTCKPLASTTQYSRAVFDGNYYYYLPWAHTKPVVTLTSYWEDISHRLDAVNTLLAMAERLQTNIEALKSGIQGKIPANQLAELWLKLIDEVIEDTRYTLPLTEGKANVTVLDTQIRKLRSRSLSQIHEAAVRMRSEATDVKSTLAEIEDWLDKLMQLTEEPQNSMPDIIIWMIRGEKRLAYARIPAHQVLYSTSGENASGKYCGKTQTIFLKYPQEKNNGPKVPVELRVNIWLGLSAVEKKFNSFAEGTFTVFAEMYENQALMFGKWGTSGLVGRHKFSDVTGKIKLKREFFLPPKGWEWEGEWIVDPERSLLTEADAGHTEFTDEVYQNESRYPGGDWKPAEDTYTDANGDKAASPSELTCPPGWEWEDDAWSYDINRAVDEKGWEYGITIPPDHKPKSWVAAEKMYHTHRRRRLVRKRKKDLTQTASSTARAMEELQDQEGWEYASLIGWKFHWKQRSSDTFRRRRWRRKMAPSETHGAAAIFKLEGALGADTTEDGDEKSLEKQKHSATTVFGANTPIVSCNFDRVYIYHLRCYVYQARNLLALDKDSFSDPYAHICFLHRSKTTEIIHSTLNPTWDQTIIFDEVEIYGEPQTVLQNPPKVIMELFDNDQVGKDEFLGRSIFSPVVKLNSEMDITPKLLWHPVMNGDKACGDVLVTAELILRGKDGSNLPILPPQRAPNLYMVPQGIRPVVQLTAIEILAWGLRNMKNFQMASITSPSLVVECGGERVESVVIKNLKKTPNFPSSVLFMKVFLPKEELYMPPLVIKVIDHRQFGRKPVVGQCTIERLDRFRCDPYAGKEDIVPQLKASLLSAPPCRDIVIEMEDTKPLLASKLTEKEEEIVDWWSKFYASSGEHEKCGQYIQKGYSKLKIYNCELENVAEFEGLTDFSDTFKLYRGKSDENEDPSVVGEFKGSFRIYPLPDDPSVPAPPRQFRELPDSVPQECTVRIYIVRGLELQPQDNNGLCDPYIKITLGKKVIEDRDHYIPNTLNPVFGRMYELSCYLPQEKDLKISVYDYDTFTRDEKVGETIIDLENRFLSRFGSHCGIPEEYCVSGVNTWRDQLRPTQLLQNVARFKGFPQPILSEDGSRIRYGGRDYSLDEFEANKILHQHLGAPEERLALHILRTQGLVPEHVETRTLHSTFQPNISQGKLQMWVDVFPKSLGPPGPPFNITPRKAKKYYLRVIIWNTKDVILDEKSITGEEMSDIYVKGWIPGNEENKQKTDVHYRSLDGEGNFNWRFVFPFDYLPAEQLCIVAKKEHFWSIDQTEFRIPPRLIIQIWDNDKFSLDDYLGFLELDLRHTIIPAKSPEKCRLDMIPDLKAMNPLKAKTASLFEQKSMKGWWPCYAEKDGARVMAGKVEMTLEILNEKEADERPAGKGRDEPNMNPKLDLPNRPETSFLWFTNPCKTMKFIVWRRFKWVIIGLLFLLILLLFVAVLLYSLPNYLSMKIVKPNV
UniProt Q92597: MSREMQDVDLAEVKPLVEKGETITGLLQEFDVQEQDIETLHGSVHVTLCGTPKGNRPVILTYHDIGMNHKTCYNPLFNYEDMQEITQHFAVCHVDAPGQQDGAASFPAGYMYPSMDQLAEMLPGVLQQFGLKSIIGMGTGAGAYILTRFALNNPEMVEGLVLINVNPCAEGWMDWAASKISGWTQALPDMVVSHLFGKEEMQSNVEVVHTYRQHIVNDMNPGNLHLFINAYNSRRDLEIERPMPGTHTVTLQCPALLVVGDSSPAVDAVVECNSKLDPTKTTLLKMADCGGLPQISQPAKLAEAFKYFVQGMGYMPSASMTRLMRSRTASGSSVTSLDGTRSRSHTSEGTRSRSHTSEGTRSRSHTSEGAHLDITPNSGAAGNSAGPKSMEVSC

Experiments:
Assay in all cases: log2 fold change, soluble protein after heating vs DMSO (PISA); higher = thermal stabilisation; K562 cells, 10 uM, 30 min; active = over 0.2 and 3.5 SD of the protein, either way, in both replicates (recomputed)
[1] = compound: C/C(=N\NC(=O)C1=CC(=CC=C1)S(=O)(=O)N2CCOCC2)/C3=C(C=CC(=C3)Cl)O
Method in brief: (§1)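 Aliquots of K562 cells (2×10^6 cells/mL) treated with 10 μM compound for 30 min were heated for 3 min over 48°C-58°C. After pooling and extraction in PBS with 0.5% NP-40 at 4°C, soluble protein from a 21,000xg, 90 min spin was quantified by TMTpro 16plex LC-MS/MS with channel sums equalised. Thermal stability is expressed against control samples, from duplicates, as a log2 fold change.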

[2] = compound: C1=CC(=C(C=C1Cl)C2=NC3=NC=CN=C3C(=N2)NC4=CC=NC=C4)F
Method in brief: as §1

[3] = compound: C1=CC2=C(C=CC(=C2)/C=C\3/C(=O)NC(=NCC4=CC=CS4)S3)N=C1
Method in brief: as §1

[4] = compound: C1=CC=C2C(=C1)C3=NNC4=CC=CC(=C43)C2=O
Method in brief: as §1

[5] = compound: C1COCCN1CCN2C3=CC=CC=C3N=C2NC(=O)C4=CC(=CC=C4)[N+](=O)[O-] [IRAK-1-4 Inhibitor I]
Method in brief: as §1

[6] = compound: CC(=O)c1cnc2ccc(-c3cc(Cl)c(O)c(Cl)c3)nc2c1N[C@H]1CC[C@H](CN(C)C)CC1
Method in brief: as §1

[7] = compound: CC(C)(O)CC(=O)NCCn1ccc2ncnc(Nc3ccc(Oc4cccc(C(F)(F)F)c4)c(Cl)c3)c21
Method in brief: as §1

[8] = compound: CC(C)N(C[C@H]1O[C@@H](n2cnc3c(N)ncnc32)[C@H](O)[C@@H]1O)[C@H]1C[C@@H](CCc2nc3cc(C(C)(C)C)ccc3[nH]2)C1 [pinometostat]
Method in brief: as §1

[9] = compound: C1=CC2=NC=CN=C2C=C1/C=C/3\C(=O)NC(=O)S3
Method in brief: as §1

[10] = compound: C=CC(=O)N1CCC[C@@H](n2nc(-c3ccc(Oc4ccccc4)cc3)c3c(N)ncnc32)C1 [ibrutinib]
Method in brief: as §1

[11] = compound: C#Cc1cccc(Nc2ncnc3cc(OCCOC)c(OCCOC)cc23)c1 [erlotinib]
Method in brief: as §1

[12] = compound: C1=CC(=CC=C1C2=NC3=C(N2)C=C(C=C3)C(=O)N)OC4=CC=C(C=C4)Cl
Method in brief: as §1

[13] = compound: CC(C)C1=C2N=C(C=C(N2N=C1)NCC3=CC=CC=C3)NCCCCCCN
Method in brief: as §1

Measured: log2 fold change

NCCRP1 (UniProt Q6ZVX7)
inactive: [1] -0.216 | [2] -0.02 | [3] 0.29 | [4] -0.291 | [5] -0.311 | [6] -0.358 | [7] 0.309 | [8] -0.12

MYOF (UniProt Q9NZM1)
inactive: [1] 0.08 | [3] 0.196 | [4] 0.224 | [6] 0.037

NDRG2 (UniProt G3V392)
inactive: [2] 0.063 | [9] -0.2 | [5] 0.024 | [10] -0.073 | [7] -0.036 | [8] -0.006

NDRG1 (UniProt Q92597)
inactive: [11] 0.152 | [12] 0.019 | [13] -0.014
